The text below walks through data of PubChem BioAssay AID272 (DTP/NCI, 2004).

The assay has as its system Lewis lung carcinoma i.m., BDF1 mice, T/C %. Description: NCI In Vivo Anticancer Drug Screen. Data for tumor model Lewis Lung Carcinoma (intramuscular) in B6D2F1 (BDF1) mice. Here is the method:
The antitumor activity of compounds was measured in mice bearing transplantable tumors. Survival or tumor size were measured and the results are expressed as the measurement made in the treated group (T) divided by the measurement made in the vehicle treated control group (C). The tumor model used in this assay is Lewis Lung Carcinoma (intramuscular) in B6D2F1 (BDF1) mice

[1] abbreviates: T/C endpoint: median survival time, dose: 150.0 mg/kg/injection, schedule: Q01DX011 (ip), vehicle: saline, higher T/C = longer survival.
Where [2] appears, read: T/C endpoint: median survival time, dose: 300.0 mg/kg/injection, schedule: Q01DX011 (ip), vehicle: saline, higher T/C = longer survival.
Setting [3] is: T/C endpoint: median survival time, dose: 600.0 mg/kg/injection, schedule: Q01DX011 (ip), vehicle: saline, higher T/C = longer survival.
Where [4] appears, read: T/C endpoint: median survival time, dose: 3.12 mg/kg/injection, schedule: Q01DX011 (ip), vehicle: other, higher T/C = longer survival.
Setting [5] is: T/C endpoint: median survival time, dose: 6.25 mg/kg/injection, schedule: Q01DX011 (ip), vehicle: other, higher T/C = longer survival.
The mark [6] stands for this setting: T/C endpoint: median survival time, dose: 50.0 mg/kg/injection, schedule: Q01DX011 (ip), vehicle: other, higher T/C = longer survival.
[7] abbreviates: T/C endpoint: median survival time, dose: 4.0 mg/kg/injection, schedule: Q01DX011 (ip), vehicle: saline, higher T/C = longer survival.
[8] abbreviates: T/C endpoint: median survival time, dose: 8.0 mg/kg/injection, schedule: Q01DX011 (ip), vehicle: saline, higher T/C = longer survival.
Where [9] appears, read: T/C endpoint: median survival time, dose: 16.0 mg/kg/injection, schedule: Q01DX011 (ip), vehicle: saline, higher T/C = longer survival.
The mark [10] stands for this setting: T/C endpoint: median survival time, dose: 32.0 mg/kg/injection, schedule: Q01DX011 (ip), vehicle: saline, higher T/C = longer survival.

The list is a part of this screen's results and no random one: it is rich in T/C values a quarter to a half above the control, in often repeated tests (any T/C) and in doses without a T/C. Other doses and runs of a compound stand elsewhere. T/C: endpoint of the treated group in % of that of the vehicle group. Some doses have a count of surviving animals in place of a T/C: the source holds a T/C of zero for them, seemingly a mark for toxic or unscored doses. Some doses without a T/C left all or most animals alive at the check, yet need not have been tolerated: survival well below the control is almost never listed, so the zero probably covers shortened survival too. Counts of survivors are from the toxicity check (mostly the fifth day) where no day follows; animals may have died later. Schedule codes are those of the source, taken here to give the interval after Q, in days (D) or hours (H), and the number of doses after X. Signs of the kind (2×) stand for listed records that agree. Some doses were run more than once; the values are given in rising order. Where survival is the endpoint, the PubChem record calls one and a half times the control and up active, and a quarter to a half above the control has no call in these data; cut-offs in other NCI protocols can differ. Some T/C values are followed by the survivors on the day toxicity was checked, most often the fifth; without a count, all were alive then.

Take `O=C1NC(=O)C(F)(F)C(O)N1` (centres undefined): the T/C (T/C endpoint: median survival time, dose: 160.0 mg/kg/injection, schedule: Q01DX011 (ip), vehicle: saline, higher T/C = longer survival) is 142 % of control. The survivor count is 0 of 8 (T/C endpoint: median survival time, dose: 320.0 mg/kg/injection, schedule: Q01DX011 (ip), vehicle: saline, higher T/C = longer survival) and 0 of 8 (T/C endpoint: median survival time, dose: 640.0 mg/kg/injection, schedule: Q01DX011 (ip), vehicle: saline, higher T/C = longer survival).
Regarding `N[C@H](C(=O)O)[C@H]1ON=C(Cl)[C@@H]1O`, the survivor count is, setting by setting: (T/C endpoint: median survival time, dose: 32.0 mg/kg/injection, schedule: Q01DX013 (ip), vehicle: saline, higher T/C = longer survival) 8 of 8; (T/C endpoint: median survival time, dose: 64.0 mg/kg/injection, schedule: Q01DX013 (ip), vehicle: saline, higher T/C = longer survival) 8 of 8; (T/C endpoint: median survival time, dose: 128.0 mg/kg/injection, schedule: Q01DX013 (ip), vehicle: saline, higher T/C = longer survival) 8 of 8; (T/C endpoint: median survival time, dose: 256.0 mg/kg/injection, schedule: Q01DX013 (ip), vehicle: saline, higher T/C = longer survival) 8 of 8.
Regarding `COc1cc(C(=O)OC2CC34CCNC35CC(OC5(OC)C2O)c2cc3c(cc24)OCO3)ccc1O` (centres undefined), the survivor count was 2 of 8 (T/C endpoint: mean tumor weight, dose: 8.0 mg/kg/injection, schedule: Q01DX011 (ip), vehicle: carboxymethylcellulose (CMC), higher T/C = larger tumour); 8 of 8 (T/C endpoint: median survival time, dose: 1.0 mg/kg/injection, schedule: Q01DX011 (ip), vehicle: carboxymethylcellulose (CMC), higher T/C = longer survival); 2 of 8 (T/C endpoint: median survival time, dose: 8.0 mg/kg/injection, schedule: Q01DX011 (ip), vehicle: carboxymethylcellulose (CMC), higher T/C = longer survival).
For `O=C(CBr)c1ccc(I)cc1`, the survivor count (T/C endpoint: median survival time, dose: 20.0 mg/kg/injection, schedule: Q01DX011 (ip), vehicle: saline with Tween-80, higher T/C = longer survival) is 5 of 8.
For the compound `NC(=O)c1cc(N2CC2)c([N+](=O)[O-])cc1[N+](=O)[O-]`, the survivor count is, setting by setting: (T/C endpoint: mean tumor weight, dose: 5.0 mg/kg/injection, schedule: Q01DX011 (ip), vehicle: saline with Tween-80, higher T/C = larger tumour) 5 of 8; (T/C endpoint: median survival time, dose: 5.0 mg/kg/injection, schedule: Q01DX011 (ip), vehicle: saline with Tween-80, higher T/C = longer survival) 5 of 8; (T/C endpoint: median survival time, dose: 80.0 mg/kg/injection, schedule: Q01DX011 (ip), vehicle: saline with Tween-80, higher T/C = longer survival) 1 of 8.
Turning to `Cn1c(Cl)nc2c(Cl)nc(Cl)nc21`, the survivor count (T/C endpoint: median survival time, dose: 32.0 mg/kg/injection, schedule: Q01DX011 (ip), vehicle: saline with Tween-80, higher T/C = longer survival) is 0 of 8.
Consider `Cc1ccc2c(C)c3ccc4ccccc4c3c[n+]2c1`, for which the survivor count runs as follows: (T/C endpoint: mean tumor weight (est.), dose: 75.0 mg/kg/injection, schedule: Q01DX011 (ip), vehicle: saline, higher T/C = larger tumour) 3 of 8; (T/C endpoint: median survival time, dose: 75.0 mg/kg/injection, schedule: Q01DX011 (ip), vehicle: saline, higher T/C = longer survival) 3 of 8; under setting [1], 0 of 8; under setting [2], 3 of 8; under setting [3], 0 of 8.
Consider `COc1ccc(N=O)c(O)c1`, for which the survivor count (T/C endpoint: median survival time, dose: 200.0 mg/kg/injection, schedule: Q01DX011 (ip), vehicle: saline, higher T/C = longer survival) is on record as 0 of 8.
On to `CSc1ncnc2nc[nH]c12`, for which the survivor count (T/C endpoint: mean tumor weight (est.), dose: 3.12 mg/kg/injection, schedule: Q01DX011 (ip), vehicle: other, higher T/C = larger tumour) was 5 of 8; the survivor count (T/C endpoint: mean tumor weight (est.), dose: 25.0 mg/kg/injection, schedule: Q01DX011 (ip), vehicle: other, higher T/C = larger tumour) is 5 of 8; the survivor count (T/C endpoint: mean tumor weight (est.), dose: 100.0 mg/kg/injection, schedule: Q01DX011 (ip), vehicle: other, higher T/C = larger tumour) is listed as 2 of 8; the survivor count (T/C endpoint: mean tumor weight, dose: 25.0 mg/kg/injection, schedule: Q01DX011 (ip), vehicle: other, higher T/C = larger tumour) was 4 of 8 and 5 of 8; the survivor count (T/C endpoint: mean tumor weight, dose: 100.0 mg/kg/injection, schedule: Q01DX011 (ip), vehicle: other, higher T/C = larger tumour) is reported as 1 of 8; the survivor count under setting [4] is on record as 5 of 8. In addition, the survivor count runs as follows: under setting [5], 7 of 8; (T/C endpoint: median survival time, dose: 25.0 mg/kg/injection, schedule: Q01DX011 (ip), vehicle: other, higher T/C = longer survival) 4 of 8 and 5 of 8 (2×); under setting [6], 6 of 8; (T/C endpoint: median survival time, dose: 100.0 mg/kg/injection, schedule: Q01DX011 (ip), vehicle: other, higher T/C = longer survival) 1 of 8 and 2 of 8; (T/C endpoint: median survival time, dose: 200.0 mg/kg/injection, schedule: Q01DX011 (ip), vehicle: other, higher T/C = longer survival) 0 of 8; (T/C endpoint: median survival time, dose: 400.0 mg/kg/injection, schedule: Q01DX011 (ip), vehicle: other, higher T/C = longer survival) 0 of 8. The T/C by setting is: under setting [4], 129 % of control [6 of 8 alive]; under setting [5], 127 % of control [6 of 8 alive]; under setting [6], 148 % of control [6 of 8 alive].
Take `N=[N+]=CC(=O)OCC(N)C(=O)O` (centres undefined): the T/C under setting [7] is 147 % of control. Moreover, the survivor count reads like this: under setting [7], 5 of 8; under setting [8], 6 of 8 (2×); under setting [9], 2 of 8 and 3 of 8; under setting [10], 0 of 8 (2×); (T/C endpoint: median tumor weight (est.), dose: 4.0 mg/kg/injection, schedule: Q01DX011 (ip), vehicle: saline, higher T/C = larger tumour) 5 of 8; (T/C endpoint: median tumor weight (est.), dose: 16.0 mg/kg/injection, schedule: Q01DX011 (ip), vehicle: saline, higher T/C = larger tumour) 3 of 8.
Turning to `COc1cc2c3c(c4ccc(OC)c(OC)c4c2cc1OC)CN1CCC[C@@H]1C3`, the survivor count by setting is: (T/C endpoint: mean tumor weight, dose: 16.0 mg/kg/injection, schedule: Q01DX011 (ip), vehicle: Klucel (hydroxypropylcellulose) (HPC), higher T/C = larger tumour) 5 of 8; (T/C endpoint: median survival time, dose: 16.0 mg/kg/injection, schedule: Q01DX011 (ip), vehicle: Klucel (hydroxypropylcellulose) (HPC), higher T/C = longer survival) 6 of 8.
For the compound `CCOC(=O)C(CS)NC(=O)CCNC(C)=O` (centres undefined), the T/C (T/C endpoint: median survival time, dose: 16.0 mg/kg/injection, schedule: Q01DX009 (ip), vehicle: water, higher T/C = longer survival) is 133 % of control.
For the compound `Nc1ncnc2c1ncn2C1OC(CO)C(O)C1O` (centres undefined), the survivor count runs as follows: under setting [3], 7 of 8; (T/C endpoint: median survival time, dose: 1200.0 mg/kg/injection, schedule: Q01DX011 (ip), vehicle: saline, higher T/C = longer survival) 0 of 8.
Regarding `CCCCCCCCCCCC[S+](C)C`, the survivor count runs as follows: under setting [8], 4 of 8; under setting [9], 0 of 8; under setting [10], 0 of 8.
With `CCN(CC)CCNc1ccc(CO)c2sc3ccccc3c(=O)c12`, the survivor count runs as follows: under setting [1], 1 of 8; under setting [2], 0 of 8.
Turning to `C[C@]12CC[C@@H]3c4ccc(O)cc4CC[C@H]3[C@@H]1C[C@@H](O)[C@@H]2O`, the survivor count (T/C endpoint: mean tumor weight, dose: 6.25 mg/kg/injection, schedule: Q01DX011 (ip), vehicle: saline with Tween-80, higher T/C = larger tumour) is 4 of 8; the survivor count (T/C endpoint: mean tumor weight, dose: 12.5 mg/kg/injection, schedule: Q01DX011 (ip), vehicle: saline with Tween-80, higher T/C = larger tumour) was 2 of 8; the survivor count (T/C endpoint: mean tumor weight, dose: 50.0 mg/kg/injection, schedule: Q01DX011 (ip), vehicle: saline with Tween-80, higher T/C = larger tumour) is on record as 2 of 8; the survivor count (T/C endpoint: mean tumor weight, dose: 100.0 mg/kg/injection, schedule: Q01DX011 (ip), vehicle: saline with Tween-80, higher T/C = larger tumour) is 3 of 8; the survivor count (T/C endpoint: median survival time, dose: 3.13 mg/kg/injection, schedule: Q01DX011 (ip), vehicle: saline with Tween-80, higher T/C = longer survival) is 8 of 8; the survivor count (T/C endpoint: median survival time, dose: 6.25 mg/kg/injection, schedule: Q01DX011 (ip), vehicle: saline with Tween-80, higher T/C = longer survival) was 4 of 8. For the same compound, the survivor count is listed as 2 of 8 (T/C endpoint: median survival time, dose: 12.5 mg/kg/injection, schedule: Q01DX011 (ip), vehicle: saline with Tween-80, higher T/C = longer survival); 3 of 8 (T/C endpoint: median survival time, dose: 25.0 mg/kg/injection, schedule: Q01DX011 (ip), vehicle: saline with Tween-80, higher T/C = longer survival); 2 of 8 (T/C endpoint: median survival time, dose: 50.0 mg/kg/injection, schedule: Q01DX011 (ip), vehicle: saline with Tween-80, higher T/C = longer survival); 3 of 8 (T/C endpoint: median survival time, dose: 100.0 mg/kg/injection, schedule: Q01DX011 (ip), vehicle: saline with Tween-80, higher T/C = longer survival).
With `CC(C)NCC(O)COc1cccc2ccccc12` (centres undefined), the survivor count (T/C endpoint: median survival time, dose: 4.0 mg/kg/injection, schedule: Q01DX009 (ip), vehicle: Klucel (hydroxypropylcellulose) (HPC), higher T/C = longer survival) is 10 of 10.
